# Source: patent publication US8198330B2, “Therapeutic or prophylactic agent for diabetes, obesity, dyslipidemia or metabolic syndrome comprising benzylamine derivative or pharmaceutically acceptable acid addition salt thereof” (Toray Industries, Inc., priority 2008, dated 2012)
# Chains of the proteins cited; added tags and fusions are not shown. Lines headed by an entry give the natural chain unless they say otherwise; changes in a name come on top.
# UniProt P13945: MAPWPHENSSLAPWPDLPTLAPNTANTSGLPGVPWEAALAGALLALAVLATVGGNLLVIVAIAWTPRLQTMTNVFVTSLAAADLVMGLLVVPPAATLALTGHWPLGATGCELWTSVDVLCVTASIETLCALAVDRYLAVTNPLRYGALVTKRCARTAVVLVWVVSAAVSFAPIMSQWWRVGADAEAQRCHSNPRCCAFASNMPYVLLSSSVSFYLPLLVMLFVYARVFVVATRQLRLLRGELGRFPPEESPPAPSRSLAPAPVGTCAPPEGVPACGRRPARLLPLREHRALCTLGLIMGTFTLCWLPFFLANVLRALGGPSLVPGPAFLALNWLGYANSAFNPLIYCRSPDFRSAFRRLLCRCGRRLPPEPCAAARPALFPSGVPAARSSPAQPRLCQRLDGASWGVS
# Some entries share one result that the patent states for a list of compounds.
# Target: T1, Human β3 adrenoreceptor (Homo sapiens, UniProt P13945)
# T1 construct: Human β3 adrenoreceptor agonistic activity was evaluated by using SK-N-MC cells in the presence of a β1 adrenoreceptor-selective antagonist; endogenous in cells; host or cells: SK-N-MC cells
# Experiment: Agonistic activity for human β3 adrenoreceptor (cAMP production, AlphaScreen, SK-N-MC cells)
# Type: cell-based
# Details: β3 versus β2 and β1, text statement
row,Compound,selectivity to β3 adrenoreceptor
1,"C[C@H](NCc1cc(C(F)(F)F)cc(C(F)(F)F)c1)[C@H](O)c1ccc(O)c(NS(C)(=O)=O)c1 [Example 2, N-(5-((1R,2S)-2-(3,5-Bis(trifluoromethyl)benzylamino)-1-hydroxypropyl)-2-hydroxyphenyl)methanesulfonamide]",superior in selectivity to β3 adrenoreceptor
2,"COc1cc(CN[C@@H](C)[C@H](O)c2ccc(O)c(NS(C)(=O)=O)c2)cc(OC)c1 [Example 1, N-(5-((1R,2S)-2-(3,5-Dimethoxybenzylamino)-1-hydroxypropyl)-2-hydroxyphenyl)methanesulfonamide]",superior in selectivity to β3 adrenoreceptor
3,"COc1cc(CN[C@@H](C)[C@H](O)c2ccc(O)c(NS(C)(=O)=O)c2)cc(OC)c1OC [Example 4, N-(2-Hydroxy-5-((1R,2S)-1-hydroxy-2-(3,4,5-trimethoxybenzylamino)propyl)phenyl)methane-sulfonamide]",superior in selectivity to β3 adrenoreceptor
